Experimental data published in article PMC9531299.
No constants are given. Whether binding was seen depends on the method and setting. Binding seen in cells or lysates may run through a third protein. Some results given as binding are weak or reduced against the parent protein; the word gives no strength. For part of these data: Where a sequence is shown, tags or fusion partners need not be part of it.

What was measured:
[1] = target: T1, endogenous RNF145 (human (endogenous in HEK‐293T)) (UniProt Q96MT1); experiment: co-IP; immunoprecipitation of endogenous RNF145 from HEK‐293T cells depleted of UBE2G2 (gUBE2G2), treated for 3 h with BSA (control) or 400 μM OA; immunoblot for ADIPOR2
T1 sequence: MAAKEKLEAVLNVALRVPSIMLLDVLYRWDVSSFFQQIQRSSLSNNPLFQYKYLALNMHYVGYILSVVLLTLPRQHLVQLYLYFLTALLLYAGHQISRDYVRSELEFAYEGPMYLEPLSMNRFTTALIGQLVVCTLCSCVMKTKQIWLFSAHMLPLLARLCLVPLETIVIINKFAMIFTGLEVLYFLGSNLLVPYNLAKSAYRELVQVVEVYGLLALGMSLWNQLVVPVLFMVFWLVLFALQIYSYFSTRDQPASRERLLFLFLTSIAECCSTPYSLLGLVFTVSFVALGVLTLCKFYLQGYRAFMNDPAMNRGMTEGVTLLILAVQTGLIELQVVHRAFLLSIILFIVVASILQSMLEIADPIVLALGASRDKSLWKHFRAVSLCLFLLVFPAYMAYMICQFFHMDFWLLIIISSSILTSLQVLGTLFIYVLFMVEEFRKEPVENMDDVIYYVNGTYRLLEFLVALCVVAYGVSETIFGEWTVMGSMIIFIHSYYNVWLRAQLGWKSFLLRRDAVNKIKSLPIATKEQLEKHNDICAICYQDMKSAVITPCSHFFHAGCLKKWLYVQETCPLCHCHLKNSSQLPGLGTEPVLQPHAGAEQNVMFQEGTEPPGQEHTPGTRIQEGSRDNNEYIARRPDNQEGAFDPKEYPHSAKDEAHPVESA

[2] = target: T1, endogenous RNF145 (human (endogenous in HEK‐293T)); experiment: condition: only cells treated with PA (400 μM, 3 h); co-IP; immunoprecipitation of endogenous RNF145 from HEK‐293T cells depleted of UBE2G2 (gUBE2G2), treated for 3 h with 400 μM PA; immunoblot for ADIPOR2
[3] = target: T2, RNF145^(C552A, H554A)‐V5, catalytically inactive RING‐domain mutant (UniProt Q96MT1); experiment: co-IP; anti‐V5 immunoprecipitation from HeLa ∆RNF145 cells complemented with V5‐tagged RNF145; cells treated with VCP inhibitor (NMS‐873, 10 μM, 90 min) before; lysis in 1% digitonin, 10 mM TRIS, 150 mM NaCl, pH 7.4; elution with V5 peptide; immunoblot
T2 sequence: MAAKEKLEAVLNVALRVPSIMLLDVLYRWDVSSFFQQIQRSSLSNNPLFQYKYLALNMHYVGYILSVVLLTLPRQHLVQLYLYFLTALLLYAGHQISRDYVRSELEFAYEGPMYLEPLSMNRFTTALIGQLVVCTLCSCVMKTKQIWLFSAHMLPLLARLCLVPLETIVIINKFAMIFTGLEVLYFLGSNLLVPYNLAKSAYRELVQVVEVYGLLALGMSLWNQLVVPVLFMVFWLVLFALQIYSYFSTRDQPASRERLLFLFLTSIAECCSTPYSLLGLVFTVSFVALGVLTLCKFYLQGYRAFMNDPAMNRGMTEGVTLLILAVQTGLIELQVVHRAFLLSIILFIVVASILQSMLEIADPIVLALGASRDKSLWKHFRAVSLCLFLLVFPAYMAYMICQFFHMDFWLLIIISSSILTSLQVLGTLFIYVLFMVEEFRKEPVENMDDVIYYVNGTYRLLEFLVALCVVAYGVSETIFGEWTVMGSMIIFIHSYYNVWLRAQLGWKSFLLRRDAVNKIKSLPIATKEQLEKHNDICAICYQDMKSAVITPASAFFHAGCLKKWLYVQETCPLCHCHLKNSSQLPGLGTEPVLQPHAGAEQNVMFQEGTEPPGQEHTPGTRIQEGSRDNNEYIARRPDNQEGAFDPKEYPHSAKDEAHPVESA

binding [1]: binds
binding [2]: no binding
binding [3]: binds
B1: endogenous ADIPOR2 (adiponectin receptor 2) (protein, UniProt Q86V24 1-386)
chain: MNEPTENRLGCSRTPEPDIRLRKGHQLDGTRRGDNDSHQGDLEPILEASVLSSHHKKSSEEHEYSDEAPQEDEGFMGMSPLLQAHHAMEKMEEFVCKVWEGRWRVIPHDVLPDWLKDNDFLLHGHRPPMPSFRACFKSIFRIHTETGNIWTHLLGCVFFLCLGIFYMFRPNISFVAPLQEKVVFGLFFLGAILCLSFSWLFHTVYCHSEGVSRLFSKLDYSGIALLIMGSFVPWLYYSFYCNPQPCFIYLIVICVLGIAAIIVSQWDMFATPQYRGVRAGVFLGLGLSGIIPTLHYVISEGFLKAATIGQIGWLMLMASLYITGAALYAARIPERFFPGKCDIWFHSHQLFHIFVVAGAFVHFHGVSNLQEFRFMIGGGCSEEDAL
